The supplement of paper PMC11732987, “Enantioselective OTUD7B fragment discovery through chemoproteomics screening and high-throughput optimisation” (Communications Chemistry, 2025)
Some of the results follow. The data scatter; read single values as rough.

Amino acid sequences for entries named in this document (tags omitted). A change or cut given only in a name is not applied to a line headed by its entry.
UniProt Q9P1Y6: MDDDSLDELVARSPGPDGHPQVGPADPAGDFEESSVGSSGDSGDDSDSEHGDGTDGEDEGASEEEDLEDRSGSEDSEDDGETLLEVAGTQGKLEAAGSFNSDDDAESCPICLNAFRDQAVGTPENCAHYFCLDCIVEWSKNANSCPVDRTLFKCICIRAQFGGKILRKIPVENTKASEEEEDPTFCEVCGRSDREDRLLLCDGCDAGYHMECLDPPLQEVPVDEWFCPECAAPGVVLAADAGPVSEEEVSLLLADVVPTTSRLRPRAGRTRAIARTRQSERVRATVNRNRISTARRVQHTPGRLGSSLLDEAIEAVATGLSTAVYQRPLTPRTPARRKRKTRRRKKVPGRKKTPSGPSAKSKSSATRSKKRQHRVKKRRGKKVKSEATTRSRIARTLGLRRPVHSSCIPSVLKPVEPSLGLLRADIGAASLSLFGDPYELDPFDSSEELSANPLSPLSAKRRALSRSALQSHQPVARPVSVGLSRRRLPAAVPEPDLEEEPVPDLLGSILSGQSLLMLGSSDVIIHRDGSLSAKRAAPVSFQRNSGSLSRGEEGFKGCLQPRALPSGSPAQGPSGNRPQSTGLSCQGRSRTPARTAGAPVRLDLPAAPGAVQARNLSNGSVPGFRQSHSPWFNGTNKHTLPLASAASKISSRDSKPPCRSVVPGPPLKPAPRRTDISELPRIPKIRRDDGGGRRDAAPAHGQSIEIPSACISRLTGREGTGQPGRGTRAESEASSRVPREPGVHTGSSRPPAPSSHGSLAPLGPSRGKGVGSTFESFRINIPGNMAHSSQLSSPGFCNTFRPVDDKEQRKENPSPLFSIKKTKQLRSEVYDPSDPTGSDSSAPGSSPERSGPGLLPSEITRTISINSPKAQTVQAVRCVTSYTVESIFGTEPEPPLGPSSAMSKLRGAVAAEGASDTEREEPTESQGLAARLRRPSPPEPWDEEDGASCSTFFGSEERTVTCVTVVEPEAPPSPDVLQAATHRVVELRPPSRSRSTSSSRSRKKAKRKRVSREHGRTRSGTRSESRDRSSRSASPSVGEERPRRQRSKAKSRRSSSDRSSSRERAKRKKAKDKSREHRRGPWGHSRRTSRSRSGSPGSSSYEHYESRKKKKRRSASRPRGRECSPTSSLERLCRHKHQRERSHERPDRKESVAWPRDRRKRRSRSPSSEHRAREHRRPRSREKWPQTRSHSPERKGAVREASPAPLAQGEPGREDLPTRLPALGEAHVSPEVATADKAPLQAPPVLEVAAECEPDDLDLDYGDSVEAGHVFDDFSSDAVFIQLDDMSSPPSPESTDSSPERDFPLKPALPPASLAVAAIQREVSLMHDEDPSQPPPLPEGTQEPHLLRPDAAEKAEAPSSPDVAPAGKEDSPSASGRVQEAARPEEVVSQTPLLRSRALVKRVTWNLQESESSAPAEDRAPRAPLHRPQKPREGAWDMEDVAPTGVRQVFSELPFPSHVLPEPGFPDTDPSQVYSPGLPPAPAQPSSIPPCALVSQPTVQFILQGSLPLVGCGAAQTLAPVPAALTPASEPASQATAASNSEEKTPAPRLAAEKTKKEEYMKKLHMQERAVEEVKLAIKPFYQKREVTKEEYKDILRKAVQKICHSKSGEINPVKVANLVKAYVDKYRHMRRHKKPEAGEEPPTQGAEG

Target: T1, PHRF1 C878 (UniProt Q9P1Y6)
T1 sequence (whole entry): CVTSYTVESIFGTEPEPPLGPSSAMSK
Assay: log2 mean competition ratio of IA-DTB cysteine labelling (DMSO/compound) (log2 ratio); higher = stronger cysteine engagement by compound
Details: 50 µM; treatment time: 4 h; cell line lysate: HEK293T
Experimental: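 IA-DTB competitive cysteine chemoproteomics in HEK293T RIPA lysate. Lysates were treated with compound 29 or 30 at 50 or 200 µM for 4 h, then IA-DTB (500 µM, 1 h), trypsin-digested, NeutrAvidin-enriched and analysed by diaPASEF. Competition ratio = intensity DMSO / intensity compound (n=4 treated, n=64 DMSO); binding: mean log2 CR ≥ 1 and p ≤ 0.05 plus QC filters. Target is the cysteine site.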

SMILES | log2 mean competition ratio
O=C(CCl)N[C@H]1CCCc2ccccc21 | 0.119
O=C(CCl)N[C@@H]1CCCc2ccccc21 | -0.0401

Same assay, conditions: 200 µM; treatment time: 4 h; cell line lysate: HEK293T

SMILES | log2 mean competition ratio
O=C(CCl)N[C@H]1CCCc2ccccc21 | -0.0314
O=C(CCl)N[C@@H]1CCCc2ccccc21 | 0.21
